B1: Protein DEK (protein, UniProt P35659 1-375)
chain: MSASAPAAEGEGTPTQPASEKEPEMPGPREESEEEEDEDDEEEEEEEKEKSLIVEGKREKKKVERLTMQVSSLQREPFTIAQGKGQKLCEIERIHFFLSKKKTDELRNLHKLLYNRPGTVSSLKKNVGQFSGFPFEKGSVQYKKKEEMLKKFRNAMLKSICEVLDLERSGVNSELVKRILNFLMHPKPSGKPLPKSKKTCSKGSKKERNSSGMARKAKRTKCPEILSDESSSDEDEKKNKEESSDDEDKESEEEPPKKTAKREKPKQKATSKSKKSVKSANVKKADSSTTKKNQNSSKKESESEDSSDDEPLIKKLKKPPTDEELKETIKKLLASANLEEVTMKQICKKVYENYPTYDLTERKDFIKTTVKELIS
B2: SUMO-activating enzyme subunit 2 (protein, UniProt Q9UBT2 1-640)
chain: MALSRGLPRELAEAVAGGRVLVVGAGGIGCELLKNLVLTGFSHIDLIDLDTIDVSNLNRQFLFQKKHVGRSKAQVAKESVLQFYPKANIVAYHDSIMNPDYNVEFFRQFILVMNALDNRAARNHVNRMCLAADVPLIESGTAGYLGQVTTIKKGVTECYECHPKPTQRTFPGCTIRNTPSEPIHCIVWAKYLFNQLFGEEDADQEVSPDRADPEAAWEPTEAEARARASNEDGDIKRISTKEWAKSTGYDPVKLFTKLFKDDIRYLLTMDKLWRKRKPPVPLDWAEVQSQGEETNASDQQNEPQLGLKDQQVLDVKSYARLFSKSIETLRVHLAEKGDGAELIWDKDDPSAMDFVTSAANLRMHIFSMNMKSRFDIKSMAGNIIPAIATTNAVIAGLIVLEGLKILSGKIDQCRTIFLNKQPNPRKKLLVPCALDPPNPNCYVCASKPEVTVRLNVHKVTVLTLQDKIVKEKFAMVAPDVQIEDGKGTILISSEEGETEANNHKKLSEFGIRNGSRLQADDFLQDYTLLINILHSEDLGKDVEFEVVGDAPEKVGPKQAEDAAKSITNGSDDGAQPSTSTAQEQDDVLIVDSDEEDSSNNADVSEEERSRKRKLDEKENLSAKRSRIEQKEELDDVIALD
B3: Transportin-3 (protein, UniProt Q9Y5L0 1-923)
chain: MEGAKPTLQLVYQAVQALYHDPDPSGKERASFWLGELQRSVHAWEISDQLLQIRQDVESCYFAAQTMKMKIQTSFYELPTDSHASLRDSLLTHIQNLKDLSPVIVTQLALAIADLALQMPSWKGCVQTLVEKYSNDVTSLPFLLEILTVLPEEVHSRSLRIGANRRTEIIEDLAFYSSTVVSLLMTCVEKAGTDEKMLMKVFRCLGSWFNLGVLDSNFMANNKLLALLFEVLQQDKTSSNLHEAASDCVCSALYAIENVETNLPLAMQLFQGVLTLETAYHMAVAREDLDKVLNYCRIFTELCETFLEKIVCTPGQGLGDLRTLELLLICAGHPQYEVVEISFNFWYRLGEHLYKTNDEVIHGIFKAYIQRLLHALARHCQLEPDHEGVPEETDDFGEFRMRVSDLVKDLIFLIGSMECFAQLYSTLKEGNPPWEVTEAVLFIMAAIAKSVDPENNPTLVEVLEGVVRLPETVHTAVRYTSIELVGEMSEVVDRNPQFLDPVLGYLMKGLCEKPLASAAAKAIHNICSVCRDHMAQHFNGLLEIARSLDSFLLSPEAAVGLLKGTALVLARLPLDKITECLSELCSVQVMALKKLLSQEPSNGISSDPTVFLDRLAVIFRHTNPIVENGQTHPCQKVIQEIWPVLSETLNKHRADNRIVERCCRCLRFAVRCVGKGSAALLQPLVTQMVNVYHVHQHSCFLYLGSILVDEYGMEEGCRQGLLDMLQALCIPTFQLLEQQNGLQNHPDTVDDLFRLATRFIQRSPVTLLRSQVVIPILQWAIASTTLDHRDANCSVMRFLRDLIHTGVANDHEEDFELRKELIGQVMNQLGQQLVSQLLHTCCFCLPPYTLPDVAEVLWEIMQVDRPTFCRWLENSLKGLPKETTVGAVTVTHKQLTDFHKQVTSAEECKQVCWALRDFTRLFR
B4: SUMO-activating enzyme subunit 1 (protein, UniProt Q9UBE0 1-346)
chain: MVEKEEAGGGISEEEAAQYDRQIRLWGLEAQKRLRASRVLLVGLKGLGAEIAKNLILAGVKGLTMLDHEQVTPEDPGAQFLIRTGSVGRNRAEASLERAQNLNPMVDVKVDTEDIEKKPESFFTQFDAVCLTCCSRDVIVKVDQICHKNSIKFFTGDVFGYHGYTFANLGEHEFVEEKTKVAKVSQGVEDGPDTKRAKLDSSETTMVKKKVVFCPVKEALEVDWSSEKAKAALKRTTSDYFLLQVLLKFRTDKGRDPSSDTYEEDSELLLQIRNDVLDSLGISPDLLPEDFVRYCFSEMAPVCAVVGGILAQEIVKALSQRDPPHNNFFFFDGMKGNGIVECLGPK

Amino acid sequences for entries named in this document (tags omitted).
UniProt Q9UER7: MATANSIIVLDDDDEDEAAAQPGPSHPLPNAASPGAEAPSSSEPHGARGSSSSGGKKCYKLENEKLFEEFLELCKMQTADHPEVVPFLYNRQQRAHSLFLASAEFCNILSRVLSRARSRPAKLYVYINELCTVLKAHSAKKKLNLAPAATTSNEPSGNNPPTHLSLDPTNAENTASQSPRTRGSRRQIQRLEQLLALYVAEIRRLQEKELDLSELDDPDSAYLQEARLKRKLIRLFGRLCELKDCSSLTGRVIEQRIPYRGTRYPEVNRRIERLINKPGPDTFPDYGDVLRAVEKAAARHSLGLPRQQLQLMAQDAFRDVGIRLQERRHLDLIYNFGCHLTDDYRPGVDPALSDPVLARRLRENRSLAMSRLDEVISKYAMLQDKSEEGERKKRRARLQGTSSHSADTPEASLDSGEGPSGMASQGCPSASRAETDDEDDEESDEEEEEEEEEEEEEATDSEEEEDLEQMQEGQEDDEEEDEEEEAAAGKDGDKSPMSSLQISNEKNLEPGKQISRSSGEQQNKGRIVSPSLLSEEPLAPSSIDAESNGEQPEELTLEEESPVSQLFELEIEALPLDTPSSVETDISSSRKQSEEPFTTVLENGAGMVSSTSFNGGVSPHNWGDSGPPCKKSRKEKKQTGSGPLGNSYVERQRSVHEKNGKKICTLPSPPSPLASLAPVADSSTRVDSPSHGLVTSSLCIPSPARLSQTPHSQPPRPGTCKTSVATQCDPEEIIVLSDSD
UniProt O75925: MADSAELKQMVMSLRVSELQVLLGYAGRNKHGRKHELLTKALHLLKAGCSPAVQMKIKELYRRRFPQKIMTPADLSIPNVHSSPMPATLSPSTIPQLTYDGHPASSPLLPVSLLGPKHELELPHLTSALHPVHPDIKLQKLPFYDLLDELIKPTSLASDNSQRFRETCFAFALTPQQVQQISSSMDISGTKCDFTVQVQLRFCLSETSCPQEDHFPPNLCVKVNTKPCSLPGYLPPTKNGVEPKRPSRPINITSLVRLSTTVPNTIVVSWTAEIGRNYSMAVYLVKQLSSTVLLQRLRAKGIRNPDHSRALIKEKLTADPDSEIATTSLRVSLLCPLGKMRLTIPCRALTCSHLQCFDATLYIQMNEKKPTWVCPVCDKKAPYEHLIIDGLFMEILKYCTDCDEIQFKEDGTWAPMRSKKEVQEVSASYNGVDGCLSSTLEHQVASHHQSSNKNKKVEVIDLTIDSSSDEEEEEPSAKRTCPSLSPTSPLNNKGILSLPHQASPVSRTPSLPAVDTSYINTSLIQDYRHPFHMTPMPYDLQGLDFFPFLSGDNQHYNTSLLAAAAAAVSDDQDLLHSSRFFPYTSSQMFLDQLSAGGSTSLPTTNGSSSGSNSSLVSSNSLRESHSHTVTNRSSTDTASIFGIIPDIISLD
UniProt P49792: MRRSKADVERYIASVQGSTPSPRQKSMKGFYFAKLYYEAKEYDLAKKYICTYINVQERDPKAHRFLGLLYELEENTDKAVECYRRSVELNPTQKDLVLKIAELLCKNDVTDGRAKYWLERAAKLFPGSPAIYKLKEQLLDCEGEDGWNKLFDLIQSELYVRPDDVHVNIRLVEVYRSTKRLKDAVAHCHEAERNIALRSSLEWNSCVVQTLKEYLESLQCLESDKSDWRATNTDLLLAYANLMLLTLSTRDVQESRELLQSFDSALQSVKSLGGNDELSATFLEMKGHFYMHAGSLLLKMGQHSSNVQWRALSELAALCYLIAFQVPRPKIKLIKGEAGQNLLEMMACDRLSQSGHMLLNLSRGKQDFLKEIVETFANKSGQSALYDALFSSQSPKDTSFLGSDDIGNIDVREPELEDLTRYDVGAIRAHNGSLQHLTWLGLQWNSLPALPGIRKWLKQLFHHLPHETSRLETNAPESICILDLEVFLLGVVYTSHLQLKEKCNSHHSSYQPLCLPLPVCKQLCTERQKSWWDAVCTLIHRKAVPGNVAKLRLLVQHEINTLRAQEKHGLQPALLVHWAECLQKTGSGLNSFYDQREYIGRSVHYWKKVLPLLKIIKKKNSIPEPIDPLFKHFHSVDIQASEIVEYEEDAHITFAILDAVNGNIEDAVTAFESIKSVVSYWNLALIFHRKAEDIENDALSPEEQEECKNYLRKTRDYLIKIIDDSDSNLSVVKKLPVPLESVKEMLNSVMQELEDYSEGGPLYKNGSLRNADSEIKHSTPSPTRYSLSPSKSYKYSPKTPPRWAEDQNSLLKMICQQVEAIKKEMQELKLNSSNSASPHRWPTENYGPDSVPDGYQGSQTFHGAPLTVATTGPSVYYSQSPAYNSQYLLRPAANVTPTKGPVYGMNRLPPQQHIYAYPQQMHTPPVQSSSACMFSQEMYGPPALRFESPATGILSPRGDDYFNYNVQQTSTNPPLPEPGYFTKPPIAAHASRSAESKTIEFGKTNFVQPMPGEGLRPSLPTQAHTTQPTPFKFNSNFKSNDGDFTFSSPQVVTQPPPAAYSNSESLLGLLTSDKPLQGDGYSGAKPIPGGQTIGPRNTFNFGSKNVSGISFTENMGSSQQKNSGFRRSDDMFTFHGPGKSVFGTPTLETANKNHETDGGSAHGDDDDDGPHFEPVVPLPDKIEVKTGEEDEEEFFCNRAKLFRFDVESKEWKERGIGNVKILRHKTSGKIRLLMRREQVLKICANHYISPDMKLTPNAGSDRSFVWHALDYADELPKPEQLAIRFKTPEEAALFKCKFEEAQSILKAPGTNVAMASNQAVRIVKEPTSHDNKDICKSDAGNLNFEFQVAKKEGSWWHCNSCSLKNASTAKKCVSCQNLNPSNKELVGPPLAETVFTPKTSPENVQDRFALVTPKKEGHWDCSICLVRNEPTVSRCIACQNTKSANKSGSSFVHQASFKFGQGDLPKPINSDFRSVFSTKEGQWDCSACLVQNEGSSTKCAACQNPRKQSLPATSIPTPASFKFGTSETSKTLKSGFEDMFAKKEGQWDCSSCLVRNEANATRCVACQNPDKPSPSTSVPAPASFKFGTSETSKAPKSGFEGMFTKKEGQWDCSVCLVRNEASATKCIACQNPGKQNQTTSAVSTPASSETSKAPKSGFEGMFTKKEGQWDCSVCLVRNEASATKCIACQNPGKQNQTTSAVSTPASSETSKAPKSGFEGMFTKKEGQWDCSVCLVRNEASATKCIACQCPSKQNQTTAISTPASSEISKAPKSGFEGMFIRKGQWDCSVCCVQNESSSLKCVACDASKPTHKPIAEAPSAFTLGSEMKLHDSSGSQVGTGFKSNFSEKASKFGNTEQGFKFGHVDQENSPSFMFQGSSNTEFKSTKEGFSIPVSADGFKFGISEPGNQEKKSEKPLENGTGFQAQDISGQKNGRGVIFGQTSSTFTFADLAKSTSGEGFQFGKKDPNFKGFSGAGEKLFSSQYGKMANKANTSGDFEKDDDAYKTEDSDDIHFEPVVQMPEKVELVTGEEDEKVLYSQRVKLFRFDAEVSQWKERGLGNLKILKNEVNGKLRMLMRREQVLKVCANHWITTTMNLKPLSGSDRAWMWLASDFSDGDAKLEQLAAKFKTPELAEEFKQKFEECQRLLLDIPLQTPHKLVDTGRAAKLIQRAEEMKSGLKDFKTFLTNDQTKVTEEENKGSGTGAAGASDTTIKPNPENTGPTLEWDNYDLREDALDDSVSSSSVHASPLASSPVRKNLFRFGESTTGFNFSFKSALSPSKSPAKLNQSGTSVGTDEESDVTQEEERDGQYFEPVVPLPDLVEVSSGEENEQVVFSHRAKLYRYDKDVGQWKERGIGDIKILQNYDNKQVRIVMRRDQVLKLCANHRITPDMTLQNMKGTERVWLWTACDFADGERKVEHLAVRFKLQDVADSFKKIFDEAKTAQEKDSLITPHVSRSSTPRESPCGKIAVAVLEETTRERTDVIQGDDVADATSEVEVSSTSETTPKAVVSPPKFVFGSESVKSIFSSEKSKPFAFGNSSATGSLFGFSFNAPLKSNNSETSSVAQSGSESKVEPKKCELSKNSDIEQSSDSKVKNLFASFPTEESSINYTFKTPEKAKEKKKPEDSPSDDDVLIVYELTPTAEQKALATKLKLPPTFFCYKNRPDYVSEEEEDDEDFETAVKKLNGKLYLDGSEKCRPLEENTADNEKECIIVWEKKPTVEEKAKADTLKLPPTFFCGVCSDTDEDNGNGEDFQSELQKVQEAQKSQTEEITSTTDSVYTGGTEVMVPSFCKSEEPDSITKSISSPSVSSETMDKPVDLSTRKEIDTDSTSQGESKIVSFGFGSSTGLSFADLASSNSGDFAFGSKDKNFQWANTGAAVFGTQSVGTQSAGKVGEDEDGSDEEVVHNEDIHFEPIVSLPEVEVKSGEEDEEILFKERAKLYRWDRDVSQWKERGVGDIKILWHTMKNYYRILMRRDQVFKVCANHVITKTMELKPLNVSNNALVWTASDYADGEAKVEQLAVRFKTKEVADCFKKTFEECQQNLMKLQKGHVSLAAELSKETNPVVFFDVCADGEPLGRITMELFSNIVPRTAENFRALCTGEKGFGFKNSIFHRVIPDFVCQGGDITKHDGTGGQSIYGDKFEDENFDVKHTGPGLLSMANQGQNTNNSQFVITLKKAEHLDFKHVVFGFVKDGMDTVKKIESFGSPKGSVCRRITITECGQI
UniProt Q13547: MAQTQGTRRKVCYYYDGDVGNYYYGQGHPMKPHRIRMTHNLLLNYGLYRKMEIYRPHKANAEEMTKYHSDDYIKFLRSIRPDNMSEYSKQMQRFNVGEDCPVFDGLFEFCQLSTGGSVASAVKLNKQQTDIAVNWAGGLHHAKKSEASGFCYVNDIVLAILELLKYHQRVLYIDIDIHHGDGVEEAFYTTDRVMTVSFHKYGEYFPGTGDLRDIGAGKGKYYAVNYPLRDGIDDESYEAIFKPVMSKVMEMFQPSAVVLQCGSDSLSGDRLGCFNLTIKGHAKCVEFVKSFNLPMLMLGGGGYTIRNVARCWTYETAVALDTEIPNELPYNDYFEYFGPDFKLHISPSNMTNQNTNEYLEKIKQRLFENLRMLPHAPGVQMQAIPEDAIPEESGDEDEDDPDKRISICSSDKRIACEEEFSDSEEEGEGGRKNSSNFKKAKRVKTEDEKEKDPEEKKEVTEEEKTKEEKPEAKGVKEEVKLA
UniProt Q93009: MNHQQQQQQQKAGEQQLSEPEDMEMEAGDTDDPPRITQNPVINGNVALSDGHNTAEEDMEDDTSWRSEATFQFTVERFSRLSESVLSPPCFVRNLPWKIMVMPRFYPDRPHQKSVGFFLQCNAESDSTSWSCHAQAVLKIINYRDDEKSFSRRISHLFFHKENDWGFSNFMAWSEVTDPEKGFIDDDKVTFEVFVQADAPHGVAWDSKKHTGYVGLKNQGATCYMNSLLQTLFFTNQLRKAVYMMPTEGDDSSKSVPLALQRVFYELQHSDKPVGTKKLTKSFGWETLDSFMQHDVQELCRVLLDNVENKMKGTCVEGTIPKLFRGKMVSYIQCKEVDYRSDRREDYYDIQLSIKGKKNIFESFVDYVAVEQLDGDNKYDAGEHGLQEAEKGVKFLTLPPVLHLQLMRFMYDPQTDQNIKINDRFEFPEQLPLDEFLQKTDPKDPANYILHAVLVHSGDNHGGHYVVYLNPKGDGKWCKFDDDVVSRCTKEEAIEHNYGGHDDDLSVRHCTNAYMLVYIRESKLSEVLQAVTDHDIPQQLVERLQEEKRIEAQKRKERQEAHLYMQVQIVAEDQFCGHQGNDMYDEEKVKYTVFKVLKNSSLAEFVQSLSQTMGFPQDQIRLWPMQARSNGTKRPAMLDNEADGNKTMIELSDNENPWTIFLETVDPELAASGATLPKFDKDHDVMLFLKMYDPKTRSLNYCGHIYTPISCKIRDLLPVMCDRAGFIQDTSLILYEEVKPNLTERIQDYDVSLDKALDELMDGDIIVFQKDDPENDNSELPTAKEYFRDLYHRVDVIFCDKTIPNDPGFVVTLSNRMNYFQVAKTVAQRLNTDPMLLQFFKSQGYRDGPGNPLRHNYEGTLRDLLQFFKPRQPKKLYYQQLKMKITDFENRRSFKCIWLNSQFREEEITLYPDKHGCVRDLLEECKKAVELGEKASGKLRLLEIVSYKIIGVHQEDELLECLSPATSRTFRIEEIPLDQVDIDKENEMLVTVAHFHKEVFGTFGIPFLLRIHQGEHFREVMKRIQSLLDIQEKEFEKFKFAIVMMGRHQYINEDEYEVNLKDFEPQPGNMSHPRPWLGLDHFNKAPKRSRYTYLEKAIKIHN

These are yes or no findings as the source states them, for the method shown. In cells and extracts the contact can be indirect. These calls come from enrichment with a bait or labelling near it, and not all partners need be listed.

The target in one experiment is HA-tagged Daxx wild-type (death domain-associated protein 6) (human) (UniProt Q9UER7). Description: affinity purification with mass spectrom.
Turning to B1, the binding entry is on record as “binds”.

As for B2, the binding entry is given as “binds”.

Take B3: the binding result is “binds”.

Turning to B4, the binding result is listed as “binds”.

The target is the same in the next experiment. Briefly: affinity purification with mass spectrom. The source holds these as a separate data set.
Take “CREB-binding protein (from UniProt Q92793 1-2442)”: the binding result is reported as “binds”.

Regarding “E3 SUMO-protein ligase PIAS1 (from UniProt O75925 1-651)”, the binding entry is given as “binds”.

Turning to “E3 SUMO-protein ligase RanBP2 (from UniProt P49792 1-3224)”, the binding result was “binds”.

For the molecule “Histone deacetylase 1 (from UniProt Q13547 1-482)”, the binding result was “binds”.

With Protein PML (from UniProt P29590 1-882), the binding result is listed as “binds”.

As to “Ubiquitin carboxyl-terminal hydrolase 7 (from UniProt Q93009 1-1102)”, the binding result was “binds”.

Values taken from publication PMC7354551.
